Source: the supplement of paper PMC4683952
Where a name gives a salt, the structure may show the parent alone. In all, about 1,200 compounds went through this assay and about 50 (4%) showed activity. No stated cut-off is given here; in the data, all actives reach 1.3 or more but so do some inactives. The list shows a part of the results.

What follows are compounds tested on Lgr5 (MarsCy1-Lgr5-EGFP, U2OS) (assay: cell-surface Lgr5 expression (SCi1 fluorescence, background-subtracted) relative to WT DMSO (fold of DMSO control); higher = more Lgr5 at the plasma membrane, active = hit call of the paper). Details: U2OS MarsCy1-Lgr5-EGFP stable; treatment time: overnight; 16 µM; library: Johns Hopkins Clinical Compound Library.

Row | Compound | cell-surface Lgr5 expression
1 | CN1C(=O)OC(C)(C)C1=O [Trimethadione (3,5,5,trimethyloxazol-idine,2,4 dione)] | inactive: 0.85
2 | CCCC(CCC)C(=O)O[C@H]1C[C@H]2CC[C@@H](C1)[N+]2(C)C [Anisotropine methylbromide] | inactive: 1.18
3 | NCCNCCNCCN [Trientine (Triethylenetetramine)] | inactive: 0.888
4 | O=C(CCc1ccc(O)cc1)c1c(O)cc(O)cc1O[C@@H]1OC(CO)[C@@H](O)[C@@H](O)C1O (some centres undefined) [Phloridzin] | inactive: 0.896
5 | COc1c(C)c2c(c(O)c1C/C=C(\C)CCC(=O)O)C(=O)OC2 [Mycophenolic acid] | inactive: 0.89
6 | NS(=O)(=O)c1cc(Cl)c(Cl)c(S(N)(=O)=O)c1 [Dichlorophenamide] | inactive: 0.698
7 | Nc1ccc(C(=O)O)cc1 [4-Aminobenzoic acid, sodium salt,99%] | inactive: 0.905
8 | CCCCCC(=O)O[C@]1(C(C)=O)CC[C@H]2[C@@H]3CCC4=CC(=O)CC[C@]4(C)[C@H]3CC[C@@]21C [Progesterone caproate (17alpha-hydroxyprogesterone)] | inactive: 1.05
9 | CCCCCC(=O)O[C@]1(C(C)=O)CC[C@H]2[C@@H]3CCC4=CC(=O)CC[C@]4(C)[C@H]3CC[C@@]21C | inactive: 1.11
10 | O=C(O[C@@H]1Cc2c(O)cc(O)cc2O[C@@H]1c1ccc(O)c(O)c1)c1cc(O)c(O)c(O)c1 [Epicatechin gallate (-)] | inactive: 1.14
11 | CNCCCC12CCC(c3ccccc31)c1ccccc12 [Maprotiline] | active: 1.32
12 | Cc1coc2c1C(=O)C(=O)c1c-2ccc2c1CCCC2(C)C [Tanshinone IIA] | inactive: 0.863
13 | CC1(C)O[C@@H]2C[C@H]3[C@@H]4CCC5=CC(=O)CC[C@]5(C)[C@@]4(F)[C@@H](O)C[C@]3(C)[C@]2(C(=O)CCl)O1 [Halcinonide] | active: 1.71
14 | O=C1C(CC[S+]([O-])c2ccccc2)C(=O)N(c2ccccc2)N1c1ccccc1 (racemic) [Sulfinpyrazone (+-)] | inactive: 1.1
15 | CC(=O)O[C@H]1C[C@@H]2CC[C@@H]3[C@H](CC[C@@]4(C)[C@H]3C[C@H]([N+]3(C)CCCCC3)[C@@H]4OC(C)=O)[C@@]2(C)C[C@@H]1N1CCCCC1 [Vecuronium bromide] | inactive: 0.878
16 | C#C[C@]1(O)CC[C@H]2[C@@H]3CCc4cc(O)ccc4[C@H]3CC[C@@]21C [Ethinyl Estradiol (17α-Ethynylestradiol)] | inactive: 0.851
17 | COc1ncnc(NS(=O)(=O)c2ccc(N)cc2)c1OC [Sulfadoxine] | inactive: 0.843
18 | O=C(Oc1ccccc1)c1ccccc1O [Phenyl salicylate] | inactive: 1.11
19 | COc1c(N2C[C@@H]3CCCN[C@@H]3C2)c(F)cc2c(=O)c(C(=O)O)cn(C3CC3)c12 [Moxifloxacin HCl] | inactive: 0.895
20 | Nc1nc2c(ncn2COCCO)c(=O)[nH]1 [Acyclovir (Acycloguanosine)] | inactive: 1.38
21 | CCCCCN(CCCCC)C(=O)C(CCC(=O)O)NC(=O)c1ccc(Cl)c(Cl)c1 (centres undefined) [Lorglumide sodium salt] | inactive: 1.05
22 | CCCCCN(CCCCC)C(=O)C(CCC(=O)O)NC(=O)c1ccc(Cl)c(Cl)c1 (centres undefined) [Lorglumide] | inactive: 1.13

Row | Compound | cell-surface Lgr5 expression
23 | COc1ccc2[nH]c([S@@+]([O-])Cc3ncc(C)c(OC)c3C)nc2c1 [Esomeprazole] | inactive: 0.751
24 | CCCCC(CC)COC(=O)C=Cc1ccc(OC)cc1 (centres undefined) | inactive: 0.676
25 | Cc1c(C2(c3cc(C(C)C)c(O)c(Br)c3C)OS(=O)(=O)c3ccccc32)cc(C(C)C)c(O)c1Br [Bromthymol blue, sodium salt] | inactive: 1.16
26 | O=NN(CCCl)C(=O)NCCCl [Carmustine] | inactive: 1.24
27 | CCOC(=O)c1ncn2c1CN(C)C(=O)c1cc(F)ccc1-2 [Flumazenil] | inactive: 1.12
28 | O=C[C@H](O)[C@@H](O)[C@H](O)[C@H](O)C(=O)[O-].[Na+] [Sodium glucuronate (D-Glucuronic acid)] | active: 1.32
29 | CC(=O)Nc1ccc(/C=N/NC(N)=S)cc1 [Thiacetazone (Amithiozone)] | inactive: 1.19
30 | N[C@@H](CSCC(=O)O)C(=O)O [Carbocysteine (S-carboxymethyl-L-cysteine)] | inactive: 0.812
31 | CC(C(=O)O)c1cccc(C(=O)c2ccccc2)c1 (centres undefined) [Ketoprofen] | inactive: 0.899
32 | CC(C)(C)C(=O)C(Oc1ccc(Cl)cc1)n1ccnc1 (centres undefined) [Climbazole] | inactive: 1.04
33 | NCCCC(N)(C(=O)O)C(F)F (racemic) | inactive: 1.18
34 | NCCCC(N)(C(=O)O)C(F)F (racemic) [Eflornithine hydrochloride] | inactive: 0.627
35 | O=C1CN(/N=C/c2ccc([N+](=O)[O-])o2)C(=O)N1 [Nitrofurantoin] | inactive: 0.908
36 | CC1=C(CC(=O)O)c2cc(F)ccc2/C1=C\c1ccc(S(C)(=O)=O)cc1 [Sulindac sulfone] | inactive: 0.73
37 | CC(=O)[C@@]1(O)CC[C@H]2[C@@H]3C[C@H](C)C4=CC(=O)CC[C@]4(C)[C@H]3CC[C@@]21C [6α-Methyl-17α-hydroxy-progesterone (Medroxyprogesterone)] | inactive: 1.45
38 | C[C@H](N)[C@H](O)c1cccc(O)c1 [Metaraminol] | inactive: 1.19
39 | CC1(C)S[C@@H]2[C@H](NC(=O)C(C(=O)O)c3ccccc3)C(=O)N2[C@H]1C(=O)O (some centres undefined) [Carbenicillin] | inactive: 0.933
40 | CC1(O)CCC(C(C)(C)O)CC1 (centres undefined) [Terpin (p-Menthane-1,8-diol monohydrate)] | inactive: 1.11
41 | CC1(C)S[C@@H]2[C@H](NC(=O)[C@H](C(=O)O)c3ccsc3)C(=O)N2[C@H]1C(=O)O [Ticarcillin] | inactive: 1.09
42 | NC[C@H]1O[C@H](O[C@H]2[C@H](O)[C@@H](O[C@H]3O[C@H](CO)[C@@H](O)[C@H](N)[C@H]3O)[C@H](N)C[C@@H]2N)[C@H](O)[C@@H](O)[C@@H]1O [Kanamycin] | inactive: 0.785
43 | CCNC(=O)CCC/C=C\C[C@@H]1[C@@H](/C=C/[C@@H](O)CCc2ccccc2)[C@H](O)C[C@@H]1O [Bimatoprost] | inactive: 1.06
44 | OCC(O)CO [Glycerin (Glycerol)] | inactive: 0.986

Looked up above:
Value for O=C(Oc1ccccc1)c1ccccc1O [Phenyl salicylate] under cell-surface Lgr5 expression: inactive: 1.11
Value for CCCCCN(CCCCC)C(=O)C(CCC(=O)O)NC(=O)c1ccc(Cl)c(Cl)c1 (centres undefined) [Lorglumide sodium salt] under cell-surface Lgr5 expression: inactive: 1.05

Carrying on.

Row | Compound | cell-surface Lgr5 expression
45 | CC1(C)O[C@@H]2C[C@H]3[C@@H]4CCC5=CC(=O)C=C[C@]5(C)[C@H]4[C@@H](O)C[C@]3(C)[C@]2(C(=O)CO)O1 | active: 1.44
46 | CCN(CC)CCOc1ccc2c(c1)C(=O)c1cc(OCCN(CC)CC)ccc1-2 [Tilorone dihydrochloride] | active: 1.62
47 | CCN(CC)C(=S)SSC(=S)N(CC)CC [Disulfiram (Tetraethylthiuram disulfide)] | inactive: 0.923
48 | [Br-].[K+] [Potassium bromide] | inactive: 0.93
49 | C/C(=C(\CCOP(=O)(O)O)SC(=O)c1ccccc1)N(C=O)Cc1cnc(C)nc1N [Benfotiamine (S-Benzoylthiamine O-monophosphate)] | inactive: 0.96
50 | CCCn1c(=O)[nH]c(=O)c2nc[nH]c21 [Enprofylline (3-Propylxanthine)] | inactive: 1.26
51 | CN1CC(O)C2=C/C(=N/NC(N)=O)C(=O)C=C21 (centres undefined) [Carbazochrome (Adrenochrome semicarbazone)] | inactive: 1.16
52 | NC(N)=NCC(=O)O [Glycocyamine (Guanidoacetic acid)] | inactive: 1.17
53 | C[C@H](CCC(=O)O)[C@H]1CC[C@H]2[C@@H]3[C@@H](O)C[C@@H]4C[C@H](O)CC[C@]4(C)[C@H]3CC[C@]12C [Ursodiol (Ursodeoxycholic acid)] | inactive: 0.801
54 | Nc1c2ccccc2nc2ccccc12 [Aminacrine (9-Aminoacridine)] | inactive: 0.26
55 | Cc1ccc(=O)n(-c2ccccc2)c1 [Pirfenidone] | inactive: 0.859
56 | Cc1c(-c2cnccn2)ssc1=S [Oltipraz] | inactive: 0.909
57 | C[C@@H]1C[C@H]2[C@@H]3CCC4=CC(=O)C=C[C@]4(C)[C@@]3(F)[C@@H](O)C[C@]2(C)[C@@]1(O)C(=O)COP(=O)(O)O | inactive: 1.26
58 | O=P([O-])([O-])[O-].[Al+3] [Aluminum Phosphate] | inactive: 1.15
59 | ClC(Cl)Cl [Chloroform] | inactive: 0.969
60 | OCCN(CCO)c1nc(N2CCCCC2)c2nc(N(CCO)CCO)nc(N3CCCCC3)c2n1 [Dipyridamole] | inactive: 1.03
61 | O=C(O)c1ccccc1C(=O)Nc1ccc(S(=O)(=O)Nc2nccs2)cc1 [Phthalylsulfathiazole] | inactive: 0.867
62 | CO[C@@H]1[C@@H](O[C@@H]2O[C@H](C)[C@@H](O[C@H]3C[C@@](C)(O)[C@@H](OC(=O)CC(C)C)[C@H](C)O3)[C@H](N(C)C)[C@H]2O)[C@@H](CC=O)C[C@@H](C)[C@@H](O)/C=C/C=C/C[C@@H](C)OC(=O)C[C@H]1OC(C)=O [Josamycin] | inactive: 1.1
63 | CC(=O)CC(c1ccccc1)c1c(O)c2ccccc2oc1=O (stereo not drawn) [Warfarin (3-3-alpha-acetonylbenzyl-4-hydroxycoumarin)] | inactive: 1.13
64 | CC(=O)OCC(=O)[C@@]12OC(C)(C)O[C@@H]1C[C@H]1[C@@H]3CCC4=CC(=O)C=C[C@]4(C)[C@@]3(F)[C@@H](O)C[C@@]12C [Triamcinolone acetonide acetate] | inactive: 1.26

Quoted at random: two records from the list
Row | Compound | cell-surface Lgr5 expression
15 | CC(=O)O[C@H]1C[C@@H]2CC[C@@H]3[C@H](CC[C@@]4(C)[C@H]3C[C@H]([N+]3(C)CCCCC3)[C@@H]4OC(C)=O)[C@@]2(C)C[C@@H]1N1CCCCC1 [Vecuronium bromide] | inactive: 0.878
7 | Nc1ccc(C(=O)O)cc1 [4-Aminobenzoic acid, sodium salt,99%] | inactive: 0.905
